Results published in paper PMC12616069.
No constants are given. Whether binding was seen depends on the method and setting. Binding seen in cells or lysates may run through a third protein. Some entries that bind do so weakly or less than the wild type.

Protein sequences, listed by entry. Tags and fused reporters are not part of them.
UniProt Q9UKE5: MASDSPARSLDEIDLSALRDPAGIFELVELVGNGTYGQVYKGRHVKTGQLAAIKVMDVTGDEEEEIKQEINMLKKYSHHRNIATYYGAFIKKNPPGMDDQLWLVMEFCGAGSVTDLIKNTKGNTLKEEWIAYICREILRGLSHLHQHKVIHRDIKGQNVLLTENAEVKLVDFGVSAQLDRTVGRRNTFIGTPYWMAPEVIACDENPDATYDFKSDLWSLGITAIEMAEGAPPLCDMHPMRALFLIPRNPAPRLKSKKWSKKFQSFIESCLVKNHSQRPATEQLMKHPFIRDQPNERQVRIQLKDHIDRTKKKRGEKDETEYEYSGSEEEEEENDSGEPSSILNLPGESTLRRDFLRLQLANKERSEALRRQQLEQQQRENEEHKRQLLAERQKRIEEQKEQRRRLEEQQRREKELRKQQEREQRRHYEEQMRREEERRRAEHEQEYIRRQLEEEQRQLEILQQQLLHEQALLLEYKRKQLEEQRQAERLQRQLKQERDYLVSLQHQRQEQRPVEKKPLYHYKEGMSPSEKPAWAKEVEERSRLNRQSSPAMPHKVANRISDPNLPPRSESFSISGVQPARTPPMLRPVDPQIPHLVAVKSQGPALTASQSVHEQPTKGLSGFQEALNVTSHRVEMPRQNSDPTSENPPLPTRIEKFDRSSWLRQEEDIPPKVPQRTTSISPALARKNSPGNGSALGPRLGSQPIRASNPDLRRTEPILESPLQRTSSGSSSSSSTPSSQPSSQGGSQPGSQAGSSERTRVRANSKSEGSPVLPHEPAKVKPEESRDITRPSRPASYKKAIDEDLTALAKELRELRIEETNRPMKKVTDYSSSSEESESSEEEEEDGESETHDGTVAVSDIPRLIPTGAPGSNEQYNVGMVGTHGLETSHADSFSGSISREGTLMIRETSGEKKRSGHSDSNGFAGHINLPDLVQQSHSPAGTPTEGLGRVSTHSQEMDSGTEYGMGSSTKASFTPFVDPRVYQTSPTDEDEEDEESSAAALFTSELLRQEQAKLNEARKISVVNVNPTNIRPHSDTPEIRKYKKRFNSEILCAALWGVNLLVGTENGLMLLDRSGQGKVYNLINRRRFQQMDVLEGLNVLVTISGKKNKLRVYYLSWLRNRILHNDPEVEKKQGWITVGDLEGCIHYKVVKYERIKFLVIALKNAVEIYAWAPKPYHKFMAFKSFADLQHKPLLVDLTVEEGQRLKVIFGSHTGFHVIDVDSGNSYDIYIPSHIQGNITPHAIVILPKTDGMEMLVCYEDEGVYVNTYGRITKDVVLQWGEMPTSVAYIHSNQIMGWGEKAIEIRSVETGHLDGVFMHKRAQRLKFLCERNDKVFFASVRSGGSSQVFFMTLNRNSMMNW
UniProt P21333: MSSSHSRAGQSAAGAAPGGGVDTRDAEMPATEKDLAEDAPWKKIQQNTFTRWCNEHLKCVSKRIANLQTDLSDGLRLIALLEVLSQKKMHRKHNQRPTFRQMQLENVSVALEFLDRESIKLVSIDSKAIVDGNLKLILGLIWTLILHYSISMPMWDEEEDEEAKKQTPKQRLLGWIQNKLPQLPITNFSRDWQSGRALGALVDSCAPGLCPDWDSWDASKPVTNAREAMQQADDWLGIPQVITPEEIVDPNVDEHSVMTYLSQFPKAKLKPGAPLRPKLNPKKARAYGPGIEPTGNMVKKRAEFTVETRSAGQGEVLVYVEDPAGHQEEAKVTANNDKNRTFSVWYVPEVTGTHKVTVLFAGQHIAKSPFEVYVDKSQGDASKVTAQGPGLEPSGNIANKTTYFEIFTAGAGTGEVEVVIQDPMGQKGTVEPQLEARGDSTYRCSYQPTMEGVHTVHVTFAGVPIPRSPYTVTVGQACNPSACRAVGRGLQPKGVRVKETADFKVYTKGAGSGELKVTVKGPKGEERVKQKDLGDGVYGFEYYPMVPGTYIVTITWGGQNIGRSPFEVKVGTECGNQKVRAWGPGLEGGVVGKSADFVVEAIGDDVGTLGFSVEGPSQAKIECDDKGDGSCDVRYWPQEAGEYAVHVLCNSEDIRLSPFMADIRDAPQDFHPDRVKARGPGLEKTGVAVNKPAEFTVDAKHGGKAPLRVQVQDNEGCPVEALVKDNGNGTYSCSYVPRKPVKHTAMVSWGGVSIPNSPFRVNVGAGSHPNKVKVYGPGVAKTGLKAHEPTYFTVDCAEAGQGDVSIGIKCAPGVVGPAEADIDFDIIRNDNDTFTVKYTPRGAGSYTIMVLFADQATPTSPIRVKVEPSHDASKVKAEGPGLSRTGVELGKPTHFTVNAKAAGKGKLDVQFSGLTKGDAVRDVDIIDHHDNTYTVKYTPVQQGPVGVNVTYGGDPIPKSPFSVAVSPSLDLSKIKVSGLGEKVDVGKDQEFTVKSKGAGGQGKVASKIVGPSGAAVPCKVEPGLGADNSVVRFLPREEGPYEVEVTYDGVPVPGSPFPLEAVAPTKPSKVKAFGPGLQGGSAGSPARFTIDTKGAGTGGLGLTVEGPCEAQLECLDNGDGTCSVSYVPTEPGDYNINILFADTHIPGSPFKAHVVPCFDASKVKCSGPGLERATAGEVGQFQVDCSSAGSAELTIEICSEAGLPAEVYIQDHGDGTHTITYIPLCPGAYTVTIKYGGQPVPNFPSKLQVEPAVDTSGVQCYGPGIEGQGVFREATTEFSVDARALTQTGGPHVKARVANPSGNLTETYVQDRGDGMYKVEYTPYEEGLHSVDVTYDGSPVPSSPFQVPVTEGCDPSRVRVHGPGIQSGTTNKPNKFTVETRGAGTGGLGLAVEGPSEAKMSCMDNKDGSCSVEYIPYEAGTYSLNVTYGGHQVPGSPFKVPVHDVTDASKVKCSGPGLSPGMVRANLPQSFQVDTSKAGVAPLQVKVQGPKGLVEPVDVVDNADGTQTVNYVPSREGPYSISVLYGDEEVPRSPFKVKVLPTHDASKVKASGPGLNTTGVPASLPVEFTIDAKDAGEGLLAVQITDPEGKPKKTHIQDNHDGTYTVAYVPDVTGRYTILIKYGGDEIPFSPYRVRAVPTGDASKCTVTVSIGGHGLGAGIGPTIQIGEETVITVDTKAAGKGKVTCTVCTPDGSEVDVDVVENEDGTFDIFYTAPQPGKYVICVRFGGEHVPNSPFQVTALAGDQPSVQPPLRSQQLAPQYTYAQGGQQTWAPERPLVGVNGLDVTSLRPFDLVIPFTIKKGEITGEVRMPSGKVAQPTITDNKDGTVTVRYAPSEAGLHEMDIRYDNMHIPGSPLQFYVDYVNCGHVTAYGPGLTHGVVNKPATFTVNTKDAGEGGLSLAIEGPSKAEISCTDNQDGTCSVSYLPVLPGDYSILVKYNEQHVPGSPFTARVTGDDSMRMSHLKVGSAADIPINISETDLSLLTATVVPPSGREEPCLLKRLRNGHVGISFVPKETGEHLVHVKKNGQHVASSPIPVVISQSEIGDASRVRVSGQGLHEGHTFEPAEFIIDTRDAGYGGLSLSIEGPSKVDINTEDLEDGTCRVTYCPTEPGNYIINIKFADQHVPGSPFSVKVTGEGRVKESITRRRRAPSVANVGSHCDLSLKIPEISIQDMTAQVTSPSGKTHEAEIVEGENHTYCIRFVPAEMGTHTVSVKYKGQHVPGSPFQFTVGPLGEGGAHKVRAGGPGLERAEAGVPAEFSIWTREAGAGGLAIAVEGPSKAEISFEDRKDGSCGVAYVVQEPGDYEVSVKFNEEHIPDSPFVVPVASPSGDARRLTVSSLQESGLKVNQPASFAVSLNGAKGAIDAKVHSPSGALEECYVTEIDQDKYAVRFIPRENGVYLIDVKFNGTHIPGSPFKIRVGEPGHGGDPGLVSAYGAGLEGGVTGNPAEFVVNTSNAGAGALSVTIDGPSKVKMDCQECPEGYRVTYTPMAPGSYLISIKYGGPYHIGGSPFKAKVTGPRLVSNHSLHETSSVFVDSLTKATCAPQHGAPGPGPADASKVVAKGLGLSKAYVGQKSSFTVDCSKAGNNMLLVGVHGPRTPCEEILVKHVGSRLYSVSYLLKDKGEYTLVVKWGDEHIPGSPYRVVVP
UniProt Q05397: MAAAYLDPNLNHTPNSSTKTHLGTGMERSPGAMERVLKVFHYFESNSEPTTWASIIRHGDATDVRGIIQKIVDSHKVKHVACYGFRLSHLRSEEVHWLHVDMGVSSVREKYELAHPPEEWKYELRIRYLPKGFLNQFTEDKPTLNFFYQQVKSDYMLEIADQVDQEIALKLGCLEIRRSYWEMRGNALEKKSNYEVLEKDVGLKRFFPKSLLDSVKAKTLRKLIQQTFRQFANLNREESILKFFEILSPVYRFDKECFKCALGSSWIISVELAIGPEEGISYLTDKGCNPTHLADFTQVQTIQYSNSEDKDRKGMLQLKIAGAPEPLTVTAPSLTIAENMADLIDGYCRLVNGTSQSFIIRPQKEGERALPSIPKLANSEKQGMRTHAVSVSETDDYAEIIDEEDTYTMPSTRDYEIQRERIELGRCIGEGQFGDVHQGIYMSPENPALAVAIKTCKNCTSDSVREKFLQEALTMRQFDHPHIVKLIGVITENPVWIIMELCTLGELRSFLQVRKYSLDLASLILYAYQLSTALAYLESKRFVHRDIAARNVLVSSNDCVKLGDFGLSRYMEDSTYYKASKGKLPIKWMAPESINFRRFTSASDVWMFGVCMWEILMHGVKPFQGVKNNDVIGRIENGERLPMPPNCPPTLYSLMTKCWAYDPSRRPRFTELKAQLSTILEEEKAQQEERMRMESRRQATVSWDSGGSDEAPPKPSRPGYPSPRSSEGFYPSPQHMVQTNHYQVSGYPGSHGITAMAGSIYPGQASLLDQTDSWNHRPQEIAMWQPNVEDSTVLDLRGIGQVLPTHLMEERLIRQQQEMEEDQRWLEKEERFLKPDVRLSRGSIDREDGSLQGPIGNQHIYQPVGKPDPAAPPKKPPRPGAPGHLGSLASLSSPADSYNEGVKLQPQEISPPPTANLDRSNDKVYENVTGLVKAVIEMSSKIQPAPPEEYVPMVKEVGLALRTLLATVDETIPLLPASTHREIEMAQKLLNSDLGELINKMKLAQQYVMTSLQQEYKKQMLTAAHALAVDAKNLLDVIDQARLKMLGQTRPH
UniProt Q86UX7: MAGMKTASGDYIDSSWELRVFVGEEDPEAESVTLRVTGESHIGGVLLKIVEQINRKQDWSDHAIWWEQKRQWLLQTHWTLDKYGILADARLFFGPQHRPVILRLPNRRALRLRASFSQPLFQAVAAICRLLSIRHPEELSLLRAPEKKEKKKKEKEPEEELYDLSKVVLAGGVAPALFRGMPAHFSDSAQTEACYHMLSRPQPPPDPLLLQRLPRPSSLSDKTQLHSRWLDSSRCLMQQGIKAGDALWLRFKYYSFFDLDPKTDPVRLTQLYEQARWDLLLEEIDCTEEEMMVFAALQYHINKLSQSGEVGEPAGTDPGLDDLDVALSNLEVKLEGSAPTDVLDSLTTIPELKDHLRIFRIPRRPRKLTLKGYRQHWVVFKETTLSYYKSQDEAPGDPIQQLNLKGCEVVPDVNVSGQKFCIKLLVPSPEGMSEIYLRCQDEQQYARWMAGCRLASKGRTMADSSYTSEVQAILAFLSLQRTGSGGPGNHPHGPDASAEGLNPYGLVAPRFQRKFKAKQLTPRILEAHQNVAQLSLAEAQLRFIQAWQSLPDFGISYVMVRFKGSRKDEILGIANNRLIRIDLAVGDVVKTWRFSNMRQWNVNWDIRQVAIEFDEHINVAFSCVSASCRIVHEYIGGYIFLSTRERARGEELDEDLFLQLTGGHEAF
UniProt P49023: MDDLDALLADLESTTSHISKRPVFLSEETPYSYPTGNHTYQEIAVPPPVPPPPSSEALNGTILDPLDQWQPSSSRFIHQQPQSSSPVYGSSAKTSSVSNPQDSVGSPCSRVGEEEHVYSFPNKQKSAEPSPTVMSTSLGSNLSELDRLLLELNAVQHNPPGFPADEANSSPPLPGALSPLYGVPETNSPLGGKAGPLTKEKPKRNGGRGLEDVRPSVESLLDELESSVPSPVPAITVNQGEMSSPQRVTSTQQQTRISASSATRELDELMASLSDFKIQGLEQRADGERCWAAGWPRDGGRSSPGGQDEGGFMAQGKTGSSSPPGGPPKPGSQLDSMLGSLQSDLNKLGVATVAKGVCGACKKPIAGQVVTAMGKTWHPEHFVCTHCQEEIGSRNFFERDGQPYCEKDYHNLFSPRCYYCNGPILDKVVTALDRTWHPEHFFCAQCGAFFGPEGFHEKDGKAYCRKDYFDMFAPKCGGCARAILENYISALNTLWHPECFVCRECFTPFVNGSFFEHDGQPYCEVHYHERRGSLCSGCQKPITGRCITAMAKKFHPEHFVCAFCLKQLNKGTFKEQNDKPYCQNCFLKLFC

B1: Rap2a (protein, UniProt P10114 1-183)
chain: MREYKVVVLGSGGVGKSALTVQFVTGTFIEKYDPTIEDFYRKEIEVDSSPSVLEILDTAGTEQFASMRDLYIKNGQGFILVYSLVNQQSFQDIKPMRDQIIRVKRYEKVPVILVGNKVDLESEREVSSSEGRALAEEWGCPFMETSAKSKTMVDELFAEIVRQMNYAAQPDKDDPCCSACNIQ

What follows are molecules tested against TRAF2 and NCK interacting kinase (human (endogenous in platelets)) (UniProt Q9UKE5) (assay: co-IP; endogenous TNIK immunoprecipitated (1 ug TNIK antibody, protein A/G beads) from lysates of resting or collagen-stimulated (25 ug/mL, 3 min) human platelets prepared under non-aggregating conditions; 1% NP40 lysis buffer (150 mM NaCl, 10 mM Tris, 5 mM EDTA, pH 7.3); beads washed in 0.5% NP40 buffer; immunoblot of the precipitate).

Row | binding | Molecule
1 | binds | filamin A (from UniProt P21333 1-2647)
2 | binds | focal adhesion kinase (from UniProt Q05397 1-1052)
3 | binds | kindlin-3 (from UniProt Q86UX7 1-667)
4 | binds | paxillin (from UniProt P49023 1-591)
5 | binds | B1
